The whole screen tested about 300,000 compounds, of which about 5,400 (1.8%) were called active. Inconclusive results, whose numbers are uncertain, are shown with a selection of clear calls. Calls come from the whole dose curve; tested in HEK293 cells. A potency beside an inconclusive call is a rough fit, not a confirmed value.
Assay: qHTS for inhibitors of binding or entry into cells for Marburg Virus
Conditions: Marburg virus pseudotyped entry inhibition, cell reporter; series mostly up to 37.8 µM
Potency is the fitted concentration of half-maximal effect.

SMILES | Potency
COCCN(C(=O)c1oc2ccccc2c1COC)c1c(N)n(CC(C)C)c(=O)[nH]c1=O | inconclusive: 0.447 µM [inhibitor, partial curve, poor fit]
CN(C)CCCN(Cc1cc2cc3c(cc2[nH]c1=O)OCO3)C(=S)Nc1ccccc1 | inconclusive: 35.5 µM [inhibitor, single point]
CCn1c(SCC(=O)NC2CCCC2)nnc1-c1cccnc1 | inactive
Cc1onc(-c2ccccc2)c1C(=O)N1CCN(c2ccccc2F)CC1 | inconclusive: 11.2 µM [inhibitor, partial curve, poor fit]
CC[n+]1c(/C=C/N(C)c2ccccc2)oc2ccc(Cl)cc21 | inconclusive: 35.5 µM [inhibitor, single point]
CCCn1c(/C=C/c2cc[n+](C)cc2)nc2ccccc21 | inactive
O=C(Cn1nnc(-c2ccccc2F)n1)Nc1ccc2c(c1)OCCO2 | inactive
CCCCCCCC[n+]1c(C)n(-c2ccccc2)c2ccc(NC(C)=O)cc21 | inconclusive: 5.01 µM [inhibitor, partial curve, poor fit]
C[N+]1=C(/C=C/Nc2ccccc2Cl)C(C)(C)c2ccccc21 | inconclusive: 29.1 µM [inhibitor, single point]
CC(C)Cc1nc(N2CCNCC2)c(C#N)c2c1CCC2 | inconclusive: 15.8 µM [inhibitor, single point]
COCCN(C(=O)Cc1cccs1)C(C(=O)NCc1ccc(OC)cc1)c1ccc(C(C)C)cc1 (stereo unspecified) | inconclusive: 16.4 µM [inhibitor, partial curve]
CC1=NN(C(=O)COc2cc(C)ccc2C(C)C)C(O)(c2ccccc2)C1 (stereo unspecified) | inconclusive: 35.5 µM [inhibitor, single point]
Cc1cc(O)c(C(=O)/C=C/c2cccc([N+](=O)[O-])c2)c(=O)o1 | inconclusive: 3.16 µM [activator, single point]
O=C(CSCc1ccc([N+](=O)[O-])cc1)N/N=C/c1ccncc1 | inactive
Cn1cc(C(=O)c2ccc(Cl)cc2Cl)cc1C(=O)N/N=C(\N)COc1ccc(Cl)cc1 | inconclusive: 11.2 µM [inhibitor, partial curve, poor fit]
COc1ccc(CC(NC(C)=O)C(=O)NC2CCN(C(=O)Nc3ccccc3Cl)CC2)cc1OC (stereo unspecified) | inactive
CCc1ccc(Nc2ncc3c(n2)CC(c2ccc(OC)cc2)CC3=O)cc1 (stereo unspecified) | active: 18.3 µM
CC1(C)CC(O)C(C(O)c2cccc([N+](=O)[O-])c2)C(C)(C)N1 (stereo unspecified) | inconclusive: 0.398 µM [activator, full curve, poor fit]
Cc1cccc(NC(=O)c2c(N)sc3c2CCC(C)C3)c1 (stereo unspecified) | inconclusive: 11.2 µM [activator, partial curve, poor fit]
CC(C)c1ccc(NC(=O)Cc2c(C(=O)O)n(C)c3ccccc23)cc1 | inactive
Cc1ccc(/C=N/NC(=O)C2COc3ccccc3O2)s1 (stereo unspecified) | inconclusive: 0.316 µM [inhibitor, full curve, poor fit]
Cc1ccccc1Nc1nnc(SCc2cc(=O)n3ccsc3n2)s1 | inactive

Taken from above.
Entry of `Cc1onc(-c2ccccc2)c1C(=O)N1CCN(c2ccccc2F)CC1` under Potency: inconclusive: 11.2 µM [inhibitor, partial curve, poor fit]
Entry of `O=C(CSCc1ccc([N+](=O)[O-])cc1)N/N=C/c1ccncc1` under Potency: inactive
Entry of `Cn1cc(C(=O)c2ccc(Cl)cc2Cl)cc1C(=O)N/N=C(\N)COc1ccc(Cl)cc1` under Potency: inconclusive: 11.2 µM [inhibitor, partial curve, poor fit]
Entry of `CC1(C)CC(O)C(C(O)c2cccc([N+](=O)[O-])c2)C(C)(C)N1` (stereo unspecified) under Potency: inconclusive: 0.398 µM [activator, full curve, poor fit]
Entry of `CC(C)c1ccc(NC(=O)Cc2c(C(=O)O)n(C)c3ccccc23)cc1` under Potency: inactive

Next entries:

SMILES | Potency
COc1cccc(/C=N/Nc2ncc(C(F)(F)F)cc2Cl)c1O | active: 0.794 µM
COCCn1c(SCC(=O)N2CCCCCC2)nc2c(c1=O)SCC2 | inconclusive: 14.1 µM [activator, single point]
CCOC(=O)c1ccc(S(=O)(=O)NNC(=O)COc2ccccc2C)cc1 | inconclusive: 0.316 µM [activator, partial curve, poor fit]
Cc1cc2c(ncn2C)c(NS(=O)(=O)c2ccc(F)cc2)c1C | inconclusive: 6.31 µM [inhibitor, full curve, poor fit]
Cc1cnc(NC(=O)/C=C/c2ccc(Br)o2)s1 | inconclusive: 8.91 µM [activator, partial curve, poor fit]
COc1ccc(-c2csc3ncnc(Cl)c23)cc1 | inactive
CCc1ccc(C(C(=O)NCc2ccc(F)cc2)N(C(=O)c2csnn2)C2CC2)cc1 (stereo unspecified) | inconclusive: 11.2 µM [inhibitor, partial curve, poor fit]
CCOC(=O)Cn1nnnc1C(CC)N(Cc1ccccc1)Cc1cc2cc(C)ccc2[nH]c1=O (stereo unspecified) | inconclusive: 29.1 µM [inhibitor, single point]
O=C(Cn1c(=O)n(-c2ccccc2)c(=O)c2sc3ccccc3c21)NC1CCCC1 | inactive
COc1ccc(C(C(=O)NC2CCCC2)N(CCC(C)C)C(=O)CCC(=O)Nc2cc(C)on2)cc1 (stereo unspecified) | inconclusive: 25.9 µM [inhibitor, partial curve, poor fit]
CCOc1ccc(NC(=O)C23CC4CC(C2)CC(c2ccccc2)(C4)C3)cc1 | inactive
CCOC(=O)c1sc(=NC(=O)c2ccc(OC)c(OC)c2)n(C)c1C | inactive
COc1ccc(C(=O)Nc2cccc(OC(=O)c3ccco3)c2)cc1 | inactive
CC(C)Cn1c(N)c(C(=O)COC(=O)C2Cc3ccccc3CN2S(C)(=O)=O)c(=O)n(C)c1=O (stereo unspecified) | inconclusive: 3.98 µM [inhibitor, partial curve, poor fit]
O=C(OCC(=O)N1CCCC1=O)c1cc2ccccc2o1 | inactive
COCCNC(=O)C(=O)N/N=C(\C)CC(=O)Nc1cccc(C(F)(F)F)c1 | inconclusive: 35.5 µM [inhibitor, single point]
O=C(Nc1ccc2nc(SCC(=O)N3CCOCC3)sc2c1)c1ccc(Cl)cc1 | inconclusive: 35.5 µM [inhibitor, single point]
Cc1ccc(S(=O)(=O)Cn2nnnc2C(CC(C)C)N2CCC(C(N)=O)CC2)cc1 (stereo unspecified) | inconclusive: 35.5 µM [activator, single point]
CN(C)c1cccc(C(=O)NN2C(=O)NC3(CCCCC3)C2=O)c1 | inconclusive: 11.2 µM [activator, partial curve, poor fit]
CC(=O)NC1=NN(C(C)=O)C(C)(c2ccccc2)S1 (stereo unspecified) | inconclusive: 1.83 µM [inhibitor, full curve]
Cc1[nH]n(-c2ccccc2)c(=O)c1C=Nc1ccc(S(=O)(=O)N(C)C)cc1 | inconclusive: 0.316 µM [activator, partial curve, poor fit]
O=C(Nc1ccc(F)cc1)c1nc[nH]c1C(=O)Nc1ccc([N+](=O)[O-])cc1 | inconclusive: 3.55 µM [inhibitor, single point]

SMILES | Potency
O=C(Nc1cccc(NC(=O)c2sc3ccccc3c2Cl)c1)c1ccco1 | inconclusive: 1.58 µM [activator, partial curve, poor fit]
CCN1CCc2c(C#N)c(NCc3ccccc3)nc(N(CC)CC)c2C1 | inconclusive: 32.6 µM [inhibitor, single point]
CC(=O)Nc1ccc(S(=O)(=O)NCc2cccnc2)cc1 | inactive
COc1ccc(NC(=O)CSc2nccn2Cc2ccccc2)cc1 | inconclusive: 1.26 µM [activator, single point]
COC(=O)Nc1ccc2c(c1)Nc1ccccc1CC2 | inconclusive: 15.8 µM [inhibitor, single point]
Cc1ccc(C(C)NC(=O)c2ccncc2)c(C)c1 (stereo unspecified) | inconclusive: 11.2 µM [inhibitor, partial curve, poor fit]
O=C(CSc1nc2ccccc2s1)N1c2ccccc2Sc2ccccc21 | inconclusive: 0.0517 µM [inhibitor, full curve, poor fit]
Cc1cc(C)c2c(=N)c3ccccc3n(CCCCCCCCn3c4ccccc4c(=N)c4c(C)cc(C)nc43)c2n1 | active: 7.08 µM
CC(=O)c1ccc(Oc2cc(C)nc(N3CCOCC3)n2)cc1 | inactive
COc1cc(NC(=O)C/C(C)=N/NC(=O)c2ccccn2)c(OC)cc1Cl | inconclusive: 3.16 µM [inhibitor, single point]
CCOC(=O)C1(CCOc2ccccc2)CCN(Cc2cccc(-n3cccn3)c2)CC1 | inconclusive: 29.1 µM [inhibitor, single point]
O=C(N/N=C\c1ccc(OC(=O)c2cccs2)cc1)c1ccc(Cl)cc1 | inconclusive: 35.5 µM [activator, single point]
Cc1cccc(NC(=O)C2CCN(S(=O)(=O)c3ccc4ccccc4c3)CC2)n1 | inconclusive: 35.5 µM [inhibitor, single point]
Cc1ccc2cc(C(c3nnnn3C3CCCC3)N(Cc3ccco3)Cc3cccs3)c(=O)[nH]c2c1 (stereo unspecified) | inconclusive: 9.2 µM [inhibitor, partial curve, poor fit]
CCOc1ccc(NC(=O)CN(C)C(=O)c2ccccc2OCc2cccc(C)c2)cc1OCC | inconclusive: 25.1 µM [inhibitor, single point]
CC1CCCCN1CCCNC(=O)Cn1ncc2c3ccccc3n(Cc3ccccc3F)c2c1=O (stereo unspecified) | inactive
COc1cc(C(=O)Nc2nnc(C)s2)c([N+](=O)[O-])cc1OC | inconclusive: 2.82 µM [inhibitor, partial curve, poor fit]
Cc1ccc2cc(CN(Cc3ccco3)C(=O)c3cccs3)c(=O)[nH]c2c1 | active: 1.26 µM
Cc1cccn2cc(-c3ccc(Cl)cc3)nc12 | inconclusive: 9.2 µM [inhibitor, single point]
Cc1ccnc(NC(=O)Nc2ccc(F)cc2)c1 | inconclusive: 1.26 µM [activator, single point]
Cc1ccccc1-n1cc(-c2ccc(Br)cc2)nc1SCC(N)=O | inconclusive: 10 µM [inhibitor, partial curve]
Cc1ccc(Nc2nc(Cl)nc(NC3CCCCC3)n2)cc1 | inconclusive: 3.16 µM [inhibitor, full curve]
